# Out of some 340,000 compounds screened, about 4,500 (1.3%) were called active. The shares of active, inactive and inconclusive entries below differ from those in the screen. Calls come from the whole dose curve; as a rule, active = well fitted inhibition curve with a large enough effect; inconclusive = small, poorly fitted or top-dose-only effect, or another doubt; inactive = no such curve, though single readings can be large or run the other way. Potencies beside an inconclusive call are fits to weak or partial responses and may not hold up.
# Biological target: DNA polymerase beta (Homo sapiens) (UniProt P06746)
# Experiment: qHTS Assay for Inhibitors of DNA Polymerase Beta
# Conditions: Pol beta primer extension/strand displacement, fluorescence kinetic; activity change, negative = inhibition: at 114 µM (top of the series)
# Summary of the method: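 Reaction started by 50 nM substrate onto compound-treated Pol beta (10 nM, 15 min preincubation, room temperature); plates read at 0 min and 10 min. Normalized concentration-effect data fitted by four-parameter Hill equation.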
# % is set by controls: 0 for no effect and ±100 for the full control effect; potency is the fitted concentration of half-maximal effect.
SMILES,Potency,"activity change, negative = inhibition"
O=C(CSc1nc2ccccc2nc1N1CCCC1)Nc1ccc(Cl)cc1,"inconclusive: 0.316 µM [inhibitor, full curve, poor fit]",
CCc1cccc(NS(=O)(=O)c2cc(-c3cnc(C)o3)ccc2OC)c1,"inconclusive: 89.1 µM [inhibitor, single point]",
CCn1cc(S(=O)(=O)c2ccc(C)cc2C)c(=O)c2cc(F)c(N3CCCCC3)cc21,,inactive: 1.85%
O=C(Nc1ccc(Cl)cc1)OCc1cn(-c2ccc(Cl)cc2)nn1,"inconclusive: 35.5 µM [inhibitor, full curve, poor fit]",
CCOC(=O)C1C(=O)C=C(N2CCOCC2)CC1c1cccc(OC)c1 (stereo not drawn),"inconclusive: 89.1 µM [inhibitor, single point]",
O=C(CSc1ccc(-c2ccc(F)cc2)nn1)NCC1CCCO1 (stereo not drawn),"inconclusive: 0.126 µM [inhibitor, full curve, poor fit]",
O=C(COC(=O)CCCc1nc2ccccc2s1)Nc1ncc(Cl)cc1Cl,active: 39.8 µM,
COc1ccccc1CNC(=O)CSc1ccsc1[N+](=O)[O-],"inconclusive: 20 µM [inhibitor, full curve]",
CCCCC1CCC(CCCC(C)CCC(=O)O)CC1 (stereo not drawn),,inconclusive: -41.8% [inhibitor]
CC(=O)Oc1cccc(N2C(=O)CC(Nc3ccc(N4CCOCC4)cc3)C2=O)c1 (stereo not drawn),"inconclusive: 79.4 µM [inhibitor, single point]",
CSc1ncc(Cl)c(C(=O)N(Cc2ccc(C(C)C)cc2)C2CCS(=O)(=O)C2)n1 (stereo not drawn),"inconclusive: 25.1 µM [inhibitor, partial curve]",
Cc1onc(-c2ccccc2Cl)c1C(=O)Nc1nnc(-c2ccc(Cl)cc2Cl)s1,"inconclusive: 100 µM [inhibitor, single point]",
CC1CN(C(=O)CCC(=O)NC(C)c2ccccc2)c2cc(Cl)ccc2O1 (stereo not drawn),"inconclusive: 0.282 µM [inhibitor, full curve, poor fit]",
O=C(N/N=C/c1cccs1)c1ccc2nc[nH]c2c1,,inactive: -6.19%
COC(=O)C1Sc2[nH]c(=O)sc2C2c3ccccc3OC(=O)C12 (stereo not drawn),,inactive: 17.8%
CCOc1ccc2c(c1)c(=O)c(C(=O)c1ccc(C)cc1)cn2Cc1ccccc1OC,,inactive: 0.164%
CO[C@@]1(NC(=O)Cc2cccs2)C(=O)N2C(C(=O)O)=C(COC(N)=O)CS[C@@H]21,active: 12.6 µM,
CCCNC(=O)c1c(N)n(-c2ccc(S(N)(=O)=O)cc2)c2nc3ccccc3nc12,"inconclusive: 6.31 µM [inhibitor, full curve]",
O=C1CCCN2N=C(SCC(=O)Nc3nc4ccccc4s3)SC2=N1,"inconclusive: 12.6 µM [inhibitor, partial curve, poor fit]",
O=C(CN1CCN(S(=O)(=O)c2ccc(F)cc2)CC1)Nc1ccc(Cl)c(C(F)(F)F)c1,"inconclusive: 89.1 µM [inhibitor, single point]",
CC(C)NS(=O)(=O)c1ccc(OCC(=O)N(C)Cc2ccccc2)cc1,"inconclusive: 89.1 µM [inhibitor, single point]",
CCCCCCN1C=CC(=C/C=C(\C#N)C(=O)OCC)C=C1,"inconclusive: 39.8 µM [inhibitor, single point]",
Cc1ccc(-n2c(SCC(=O)Nc3c(C)cccc3C)nc(O)c(C)c2=O)cc1,"inconclusive: 79.4 µM [inhibitor, single point]",

# Ordered by count of non-hydrogen atoms (ascending): some entries from above
SMILES,Potency,"activity change, negative = inhibition"
CC1CN(C(=O)CCC(=O)NC(C)c2ccccc2)c2cc(Cl)ccc2O1 (stereo not drawn),"inconclusive: 0.282 µM [inhibitor, full curve, poor fit]",
CO[C@@]1(NC(=O)Cc2cccs2)C(=O)N2C(C(=O)O)=C(COC(N)=O)CS[C@@H]21,active: 12.6 µM,
CCCNC(=O)c1c(N)n(-c2ccc(S(N)(=O)=O)cc2)c2nc3ccccc3nc12,"inconclusive: 6.31 µM [inhibitor, full curve]",
CCn1cc(S(=O)(=O)c2ccc(C)cc2C)c(=O)c2cc(F)c(N3CCCCC3)cc21,,inactive: 1.85%

# Additional records

SMILES,Potency,"activity change, negative = inhibition"
Cc1ccc(S(=O)(=O)N(Cc2ccccc2)c2ccccc2C(=O)Nc2ccccc2C(=O)NCc2ccco2)cc1,"inconclusive: 89.1 µM [inhibitor, single point]",
COc1ccc2c(C)cc(SCC(=O)Nc3cc(C(N)=O)cc(C(N)=O)c3)nc2c1,active: 25.1 µM,
Cc1cccc(C(=O)OCc2cc(=O)n3nc(-c4cccs4)sc3n2)c1,active: 20 µM,
CCN(CC)CCCNC(=S)N(Cc1cccnc1)Cc1cc2cc(C)cc(C)c2[nH]c1=O,"inconclusive: 79.4 µM [inhibitor, single point]",
COC(=O)C(Cc1ccccc1)NS(=O)(=O)c1ccccc1Br (stereo not drawn),"inconclusive: 31.6 µM [inhibitor, single point]",
COC(=O)c1ccc(C)c(NC(=O)CSc2sc3c(O)cc(=O)[nH]c3c2C#N)c1,active: 35.5 µM,
COc1ccc(NC(=O)c2cc3c(=O)n(C)c4ccccc4c3s2)cc1OC,"inconclusive: 2.24 µM [inhibitor, full curve]",
COC(=O)CC(c1ccc(OC)c(OC)c1)c1ccc(OC)c(OC)c1,,inactive: 5.62%
COC(=O)c1c(C)[nH]c(C(=O)/C=C/c2cccc(Cl)c2)c1C,"inconclusive: 89.1 µM [inhibitor, single point]",
O=C(COC(=O)c1cc(F)cc(F)c1)NCCCc1ccccc1,,inactive: 8.25%
CCOC(=O)C1CCCN(C(=O)c2ccc(NC(=O)c3nsc4ccccc34)cc2)C1 (stereo not drawn),,inactive: 2.74%
O=C(Nc1nnc(S(=O)(=O)N2CCc3ccccc32)s1)c1ccccc1Cl,,inactive: -9.19%
CC1(C)Cc2ccccc2-c2nnc(SCC(=O)N3CCN(c4ccccc4)CC3)n21,"inconclusive: 100 µM [inhibitor, partial curve]",
CCc1ccccc1NC(=O)CSc1ccsc1[N+](=O)[O-],active: 25.1 µM,
Cc1ccc(CCNS(=O)(=O)c2ccc3c(c2)NC(=O)C(C)C(=O)N3)cc1 (stereo not drawn),"inconclusive: 0.178 µM [inhibitor, full curve, poor fit]",
CCN(CC)c1ccc(/C=C/c2cccc[n+]2C)c(OC)c1,active: 50.1 µM,
Cc1cc(-c2n[nH]c(=S)n2/N=C/C=C/c2ccco2)n[nH]1,active: 39.8 µM,
O=C(Nc1ccccc1Cl)N1CCn2c(nc3ccccc32)C1,"inconclusive: 0.891 µM [inhibitor, partial curve, poor fit]",
O=C(CCCCCCCC(=O)NNC(=O)Nc1ccccc1)NNC(=O)Nc1ccccc1,active: 31.6 µM,
O=C(NC(=S)Nc1nc2c(s1)CCCC2)c1ccccc1,"inconclusive: 89.1 µM [inhibitor, single point]",
Cc1ccc(Cn2ccc(O)c(Cc3ccccc3)c2=O)cc1,"inconclusive: 25.1 µM [inhibitor, single point]",
COc1ccc(/C=N/Nc2nc3ccccc3c(=O)n2-c2ccccc2)cc1OC,"inconclusive: 89.1 µM [inhibitor, single point]",
NC(=O)Cn1c(=O)n(Cc2ccco2)c(=O)c2c3c(sc21)CCCCC3,active: 10 µM,

SMILES,Potency,"activity change, negative = inhibition"
O=C(COc1ncnc2cc([N+](=O)[O-])ccc12)NCc1ccc2c(c1)OCO2,"inconclusive: 89.1 µM [inhibitor, single point]",
Cn1cc(C(=O)NCc2ccc(Cl)cc2)c(=O)c2cc(S(=O)(=O)N3CCCCCC3)ccc21,,inactive: 2.47%
CN(CCc1ccccn1)C(=O)CCc1nnc(CCCc2ccccc2)o1,"inconclusive: 0.891 µM [inhibitor, full curve, poor fit]",
FC(F)(F)c1cnc2c(c1)Nc1ccccc1S2,,inactive: 6.58%
Cc1ccc(NS(=O)(=O)c2cc([N+](=O)[O-])ccc2NNC(=S)Nc2cccc(Cl)c2)c(C)c1,"inconclusive: 50.1 µM [inhibitor, partial curve]",
CCOC(=O)c1ccc(NC(=O)c2c(NCc3sccc3C)sc3c2CCCCC3)cc1,"inconclusive: 44.7 µM [inhibitor, partial curve, poor fit]",
O=C(NC1CCCCC1)c1c[nH]c2ccc(S(=O)(=O)Nc3ccccc3F)cc2c1=O,active: 25.1 µM,
COc1cc(NS(=O)(=O)c2ccc(N/C=C(\C=O)c3nc4cc(Cl)ccc4o3)cc2)nc(OC)n1,"inconclusive: 56.2 µM [inhibitor, partial curve]",
CC(C)c1ccc(-n2nc3ccc(N)cc3n2)cc1,"inconclusive: 63.1 µM [inhibitor, single point]",
CCC1(c2cccc(Cl)c2)NC(=O)N(Cc2cc(C(=O)OC)c(C)o2)C1=O (stereo not drawn),"inconclusive: 20 µM [inhibitor, full curve]",
CC1CCN(CC(=O)Nc2nc(-c3ccccc3)cs2)CC1,,inactive: -10.2%
Cc1ccc(NC(=O)Cn2c(CCC(=O)O)ccc2-c2ccc(Cl)cc2)cc1,"inconclusive: 70.8 µM [inhibitor, single point]",
Cc1ccc(N=Cc2cc(Cc3ccccc3Cl)cc([N+](=O)[O-])c2O)c(O)c1,active: 15.8 µM,
CCOC(=O)c1[nH]c(C)c(C(=O)OCc2c(C)noc2C)c1C,"inconclusive: 79.4 µM [inhibitor, single point]",
C(=N\n1cnnc1)/c1cccc(OCCOc2ccccc2)c1,"inconclusive: 0.1 µM [inhibitor, full curve, poor fit]",
Cc1ccccc1NC(=S)N1CCN(c2ccccc2)CC1,"inconclusive: 89.1 µM [inhibitor, single point]",
Cc1ccc(C(=O)Nc2ccc(C(=O)OCc3cc(=O)n4ccsc4n3)cc2)cc1,"inconclusive: 3.98 µM [inhibitor, full curve]",
O=C1c2cccc3c(O)ccc(c23)C(=O)N1Cc1ccccc1,,inactive: 4.42%
Cc1cccn2c(=O)c3cc(C(=O)NCCc4ccccc4)c(=N)n(CCCn4ccnc4)c3nc12,"inconclusive: 44.7 µM [inhibitor, partial curve]",
COCCCN1C(=O)C2C(C(=O)Nc3cccc(Cl)c3)C3C=CC2(O3)C1C(=O)NC1CCCCC1 (stereo not drawn),,inactive: 41.6%
COc1c(O)cc2c(c1O)C(=O)CC(c1ccccc1)O2 (stereo not drawn),,inactive: 48.7%
CCN(CC)C(=O)c1sc2c(c1C)c(=O)n(-c1ccc(C)c(C)c1)c(=O)n2Cc1cc(=O)n2c(C)cccc2n1,,inactive: 5.19%

# Source: PubChem BioAssay AID485314 (National Center for Advancing Translational Sciences (NCATS), 2010)
